The other results are listed elsewhere or left out.
Columns and labels:
Experiment in all cases: glycan array binding signal (z-score within array); higher = stronger binding
Settings in all cases: glycan notation: IUPAC condensed, linker removed
[1] = biological target: Neu5Ac(a2-3)Gal6S(b1-4)[Fuc(a1-3)]GlcNAc
Method in brief: (§1)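 The binding signal is a Z-score computed within each array. Data were drawn from 3228 arrays in the Consortium for Functional Glycomics database, restricted to those with a known protein sequence. Scores were averaged over arrays of the same protein sequence at different concentrations or buffers, and over linkers, and negative values can be taken as non-binding.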

Neu5Ac(a2-3)GalNAc = biological target: Neu5Ac(a2-3)GalNAc
Method in brief: as §1

[2] = biological target: Neu5Ac(a2-3)GalNAc(b1-4)GlcNAc
Method in brief: as §1

[3] = biological target: Neu5Ac(a2-3)[GalNAc(b1-4)]Gal(b1-4)Glc
Method in brief: as §1

[4] = biological target: Neu5Ac(a2-3)[GalNAc(b1-4)]Gal(b1-4)GlcNAc
Method in brief: as §1

[5] = biological target: Neu5Ac(a2-3)[GalNAc(b1-4)]Gal(b1-4)GlcNAc(b1-3)GalNAc
Method in brief: as §1

[6] = biological target: Neu5Ac(a2-3)[Neu5Ac(a2-6)]GalNAc
Method in brief: as §1

Neu5Ac(a2-6)Gal = biological target: Neu5Ac(a2-6)Gal
Method in brief: as §1

[7] = biological target: Neu5Ac(a2-6)Gal(b1-3)GlcNAc(b1-3)[Gal(b1-4)GlcNAc(b1-6)]Gal(b1-4)Glc
Method in brief: as §1

Neu5Ac(a2-6)Gal(b1-4)Glc = biological target: Neu5Ac(a2-6)Gal(b1-4)Glc
Method in brief: as §1

[8] = biological target: Neu5Ac(a2-6)Gal(b1-4)GlcNAc
Method in brief: as §1

[9] = biological target: Neu5Ac(a2-6)Gal(b1-4)GlcNAc(b1-2)Man
Method in brief: as §1

[10] = biological target: Neu5Ac(a2-6)Gal(b1-4)GlcNAc(b1-2)Man(a1-3)Man(b1-4)GlcNAc(b1-4)GlcNAc
Method in brief: as §1

[11] = biological target: Neu5Ac(a2-6)Gal(b1-4)GlcNAc(b1-2)Man(a1-3)[Gal(b1-4)GlcNAc(b1-2)Man(a1-6)]Man(b1-4)GlcNAc(b1-4)GlcNAc
Method in brief: as §1

[12] = biological target: Neu5Ac(a2-6)Gal(b1-4)GlcNAc(b1-2)Man(a1-3)[GlcNAc(b1-2)Man(a1-6)]Man(b1-4)GlcNAc(b1-4)GlcNAc
Method in brief: as §1

[13] = biological target: Neu5Ac(a2-6)Gal(b1-4)GlcNAc(b1-2)Man(a1-3)[GlcNAc(b1-4)][Neu5Ac(a2-6)Gal(b1-4)GlcNAc(b1-2)Man(a1-6)]Man(b1-4)GlcNAc(b1-4)GlcNAc
Method in brief: as §1

[14] = biological target: Neu5Ac(a2-6)Gal(b1-4)GlcNAc(b1-2)Man(a1-3)[Man(a1-6)]Man(b1-4)GlcNAc(b1-4)GlcNAc
Method in brief: as §1

[15] = biological target: Neu5Ac(a2-6)Gal(b1-4)GlcNAc(b1-2)Man(a1-3)[Neu5Ac(a2-3)Gal(b1-4)GlcNAc(b1-2)Man(a1-6)]Man(b1-4)GlcNAc(b1-4)GlcNAc
Method in brief: as §1

[16] = biological target: Neu5Ac(a2-6)Gal(b1-4)GlcNAc(b1-2)Man(a1-3)[Neu5Ac(a2-6)Gal(b1-4)GlcNAc(b1-2)Man(a1-6)]Man(b1-4)GlcNAc(b1-4)GlcNAc
Method in brief: as §1

[17] = biological target: Neu5Ac(a2-6)Gal(b1-4)GlcNAc(b1-2)Man(a1-3)[Neu5Ac(a2-6)Gal(b1-4)GlcNAc(b1-2)Man(a1-6)]Man(b1-4)GlcNAc(b1-4)[Fuc(a1-6)]GlcNAc
Method in brief: as §1

[18] = biological target: Neu5Ac(a2-6)Gal(b1-4)GlcNAc(b1-2)Man(a1-6)Man(b1-4)GlcNAc(b1-4)GlcNAc
Method in brief: as §1

[19] = biological target: Neu5Ac(a2-6)Gal(b1-4)GlcNAc(b1-2)Man(a1-6)[Gal(b1-4)GlcNAc(b1-2)Man(a1-3)]Man(b1-4)GlcNAc(b1-4)GlcNAc
Method in brief: as §1

[20] = biological target: Neu5Ac(a2-6)Gal(b1-4)GlcNAc(b1-2)Man(a1-6)[GlcNAc(b1-2)Man(a1-3)]Man(b1-4)GlcNAc(b1-4)GlcNAc
Method in brief: as §1

[21] = biological target: Neu5Ac(a2-6)Gal(b1-4)GlcNAc(b1-2)Man(a1-6)[Man(a1-3)]Man(b1-4)GlcNAc(b1-4)GlcNAc
Method in brief: as §1

[22] = biological target: Neu5Ac(a2-6)Gal(b1-4)GlcNAc(b1-2)[Neu5Ac(a2-6)Gal(b1-4)GlcNAc(b1-4)]Man(a1-3)[GlcNAc(b1-4)][Neu5Ac(a2-6)Gal(b1-4)GlcNAc(b1-2)[Neu5Ac(a2-6)Gal(b1-4)GlcNAc(b1-6)]Man(a1-6)]Man(b1-4)GlcNAc(b1-4)GlcNAc
Method in brief: as §1

[23] = biological target: Neu5Ac(a2-6)Gal(b1-4)GlcNAc(b1-2)[Neu5Ac(a2-6)Gal(b1-4)GlcNAc(b1-4)]Man(a1-3)[GlcNAc(b1-4)][Neu5Ac(a2-6)Gal(b1-4)GlcNAc(b1-4)Man(a1-6)]Man(b1-4)GlcNAc(b1-4)GlcNAc
Method in brief: as §1

[24] = biological target: Neu5Ac(a2-6)Gal(b1-4)GlcNAc(b1-2)[Neu5Ac(a2-6)Gal(b1-4)GlcNAc(b1-6)]Man(a1-6)[Neu5Ac(a2-6)Gal(b1-4)GlcNAc(b1-2)Man(a1-3)][GlcNAc(b1-4)]Man(b1-4)GlcNAc(b1-4)GlcNAc
Method in brief: as §1

[25] = biological target: Neu5Ac(a2-6)Gal(b1-4)GlcNAc(b1-3)Gal(b1-3)GlcNAc
Method in brief: as §1

[26] = biological target: Neu5Ac(a2-6)Gal(b1-4)GlcNAc(b1-3)Gal(b1-4)GlcNAc
Method in brief: as §1

[27] = biological target: Neu5Ac(a2-6)Gal(b1-4)GlcNAc(b1-3)Gal(b1-4)GlcNAc(b1-2)Man(a1-3)[Neu5Ac(a2-6)Gal(b1-4)GlcNAc(b1-3)Gal(b1-4)GlcNAc(b1-2)Man(a1-6)]GalNAc
Method in brief: as §1

[28] = biological target: Neu5Ac(a2-6)Gal(b1-4)GlcNAc(b1-3)Gal(b1-4)GlcNAc(b1-3)Gal(b1-4)GlcNAc
Method in brief: as §1

[29] = biological target: Neu5Ac(a2-6)Gal(b1-4)GlcNAc(b1-3)Gal(b1-4)GlcNAc(b1-3)Gal(b1-4)GlcNAc(b1-2)Man(a1-3)[Neu5Ac(a2-6)Gal(b1-4)GlcNAc(b1-3)Gal(b1-4)GlcNAc(b1-3)Gal(b1-4)GlcNAc(b1-2)Man(a1-6)]GalNAc
Method in brief: as §1

[30] = biological target: Neu5Ac(a2-6)Gal(b1-4)GlcNAc(b1-3)Gal(b1-4)GlcNAc(b1-3)GalNAc
Method in brief: as §1

[31] = biological target: Neu5Ac(a2-6)Gal(b1-4)GlcNAc(b1-3)Gal(b1-4)GlcNAc(b1-3)[Neu5Ac(a2-6)Gal(b1-4)GlcNAc(b1-3)Gal(b1-4)GlcNAc(b1-6)]GalNAc
Method in brief: as §1

[32] = biological target: Neu5Ac(a2-6)Gal(b1-4)GlcNAc(b1-3)Gal(b1-4)GlcNAc(b1-6)[Gal(b1-3)]GalNAc
Method in brief: as §1

[33] = biological target: Neu5Ac(a2-6)Gal(b1-4)GlcNAc(b1-3)Gal(b1-4)[Fuc(a1-3)]GlcNAc(b1-3)Gal(b1-4)[Fuc(a1-3)]GlcNAc
Method in brief: as §1

[34] = biological target: Neu5Ac(a2-6)Gal(b1-4)GlcNAc(b1-3)GalNAc
Method in brief: as §1

B1: Clec12b (Mus musculus), Q149M0 (protein)
chain: MSDEVTYATLMLQDSARVRGNQDGNNLRKEGHPAQSSLWRGAALSLMTLCLVLVTGLVTLATMFLQVSNDINSDSEKLSQLQKSIHPQQDNLSESLNSSRKSLTEESLQSQISALLERQEQMATKLCKEFLIHASDHKCNPCPKTWQWYGNSCYYFSINEEKSWSDSRKDCIDKNATLVKIDSTEERDLLQSQLSLTFSFFWLGLSWNSSGRNWLWEDGSFPPPTLFSDKELASFNGSRDCAYFERGNIYASRCSAEIPWICEKTASLVKTEDLD
glycan array binding signal (z-score) [1]: -0.642
glycan array binding signal (z-score) (Neu5Ac(a2-3)GalNAc): -0.487
glycan array binding signal (z-score) [2]: -0.65
glycan array binding signal (z-score) [3]: 0.035
glycan array binding signal (z-score) [4]: -0.538
glycan array binding signal (z-score) [5]: -0.509
glycan array binding signal (z-score) [6]: 0.196
glycan array binding signal (z-score) (Neu5Ac(a2-6)Gal): -0.669
glycan array binding signal (z-score) [7]: -0.06
glycan array binding signal (z-score) (Neu5Ac(a2-6)Gal(b1-4)Glc): -0.45
glycan array binding signal (z-score) [8]: -0.563
glycan array binding signal (z-score) [9]: -0.491
glycan array binding signal (z-score) [10]: -0.558
glycan array binding signal (z-score) [11]: -0.254
glycan array binding signal (z-score) [12]: -0.701
glycan array binding signal (z-score) [13]: -0.558
glycan array binding signal (z-score) [14]: -0.656
glycan array binding signal (z-score) [15]: -0.659
glycan array binding signal (z-score) [16]: -0.64
glycan array binding signal (z-score) [17]: -0.061
glycan array binding signal (z-score) [18]: -0.789
glycan array binding signal (z-score) [19]: 0.626
glycan array binding signal (z-score) [20]: -0.685
glycan array binding signal (z-score) [21]: -0.428
glycan array binding signal (z-score) [22]: -0.381
glycan array binding signal (z-score) [23]: -0.46
glycan array binding signal (z-score) [24]: -0.735
glycan array binding signal (z-score) [25]: -0.688
glycan array binding signal (z-score) [26]: -0.611
glycan array binding signal (z-score) [27]: 0.298
glycan array binding signal (z-score) [28]: -0.719
glycan array binding signal (z-score) [29]: 0.134
glycan array binding signal (z-score) [30]: -0.661
glycan array binding signal (z-score) [31]: -0.419
glycan array binding signal (z-score) [32]: -0.651
glycan array binding signal (z-score) [33]: -0.35
glycan array binding signal (z-score) [34]: -0.503
